{
  "source": "the supplement of paper PMC6289059",
  "note": "Some of the results follow. Many values rest on one well or one pass, so single values are uncertain.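 The cells are hepatocyte-like cells grown from human stem cells in which the DGUOK gene was disrupted by CRISPR, a model of liver mtDNA depletion syndrome. Each well's ATP signal was scored against the other wells on its plate, and a drug counted as a primary hit when its score was 3 or higher.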",
  "data": [
    {"system": "DGUOK Δ14/Δ5 iPSC-derived hepatocyte-like cells (SV20)", "assay": "ATP level (CellTiter-Glo luminescence) Z score relative to plate distribution, under 2-DG glycolysis block; higher = more cellular ATP (rescue of mitochondrial ATP production)", "conditions": "5 µM; treatment time: day 15 to day 20 of differentiation (5 days); 2-deoxy-D-glucose: 20 mM for 24 h before assay", "values": [
      {"smiles": "COC(=O)[C@H]1[C@H]2C[C@@H]3c4[nH]c5cc(OC)ccc5c4CCN3C[C@H]2C[C@@H](OC(=O)c2cc(OC)c(OC)c(OC)c2)[C@@H]1OC", "ATP level": "inactive: -0.0557"},
      {"smiles": "CC(C)(CO)[C@@H](O)C(=O)NCCCO", "ATP level": "inactive: 1.49"},
      {"smiles": "O=C(O[C@@H]1Cc2c(O)cc(O)cc2O[C@@H]1c1cc(O)c(O)c(O)c1)c1cc(O)c(O)c(O)c1", "ATP level": "inactive: 2.26"},
      {"smiles": "CCOC(=O)[C@H](CCc1ccccc1)N[C@@H](C)C(=O)N1[C@H](C(=O)O)C[C@H]2CCCC[C@@H]21", "ATP level": "inactive: 0.204"},
      {"smiles": "C[C@]12CC[C@@H](O)C[C@H]1CCc1ccccc12", "note": "[3alpha-HYDROXY-4,4-BISNOR-8,11,13-PODOCARPATRIENE]", "ATP level": "inactive: 0.858"},
      {"smiles": "CC[C@H](CC[C@@H](C)[C@H]1CC[C@H]2[C@@H]3CC=C4C[C@@H](OC(C)=O)CC[C@]4(C)[C@H]3CC[C@]12C)C(C)C", "ATP level": "inactive: 0.665"},
      {"smiles": "COc1c(Cl)c(C)c(C(=O)Oc2cc(C)c(C(=O)O)c(O)c2)c(O)c1Cl", "ATP level": "inactive: -0.184"},
      {"smiles": "CC(C(=O)O)[C@H]1CCC2C3CC=C4C[C@@H](O)CC[C@]4(C)C3CC[C@@]21C", "note": "(stereo partly drawn) [3beta-HYDROXY-23,24-BISNORCHOL-5-ENIC ACID]", "ATP level": "inactive: -2.11"},
      {"smiles": "CN1C(=O)CC(C)(c2ccccc2)C1=O", "note": "(configuration not stated)", "ATP level": "inactive: 0.883"},
      {"smiles": "CCN(CC)CCNC(=O)c1ccc(NC(C)=O)cc1", "ATP level": "inactive: 2.67"},
      {"smiles": "CNC[C@H](O)c1cccc(O)c1", "ATP level": "inactive: 0.984"},
      {"smiles": "OC[C@H]1O[C@@H](OCCc2ccc(O)cc2)[C@H](O)[C@@H](O)[C@@H]1O", "ATP level": "inactive: -0.157"},
      {"smiles": "CNCCC=C1c2ccccc2CCc2ccccc21", "ATP level": "inactive: -14.2"},
      {"smiles": "C[C@H]1[C@H](NC(=O)/C(=N\\OC(C)(C)C(=O)O)c2csc(N)n2)C(=O)N1S(=O)(=O)O", "ATP level": "inactive: -0.251"},
      {"smiles": "CCc1c2c(nc3ccc(OC(=O)N4CCC(N5CCCCC5)CC4)cc13)-c1cc3c(c(=O)n1C2)COC(=O)[C@]3(O)CC", "ATP level": "inactive: -2.78"},
      {"smiles": "Cc1ccc2c(c1)CC[C@H]1CC(=O)CC[C@]21C", "ATP level": "inactive: 0.709"},
      {"smiles": "C[C@@H](O)[C@H](N)C(=O)O", "ATP level": "inactive: -1.23"},
      {"smiles": "CC(C)(O/N=C(\\C(=O)N[C@@H]1C(=O)N2C(C(=O)[O-])=C(C[n+]3ccccc3)CS[C@H]12)c1csc(N)n1)C(=O)O", "ATP level": "inactive: 2.83"},
      {"smiles": "CN1CCN(C(c2ccccc2)c2ccc(Cl)cc2)CC1", "note": "(configuration not stated)", "ATP level": "inactive: -2.68"},
      {"smiles": "Cc1ccc(C(C)C)cc2c(C)ccc1-2", "ATP level": "inactive: -1.05"},
      {"smiles": "O=C(N/N=C/c1ccc([N+](=O)[O-])o1)c1ccc(O)cc1", "ATP level": "inactive: 0.395"},
      {"smiles": "NC(=O)c1ncn([C@@H]2O[C@H](CO)[C@@H](O)[C@H]2O)c1O", "ATP level": "inactive: 0.609"},
      {"smiles": "CC(=O)Nc1ccc(S(=O)(=O)Nc2ccc([N+](=O)[O-])cc2)cc1", "ATP level": "inactive: 0.98"},
      {"smiles": "Cc1ccc(C(=O)Nc2ccc(S(=O)(=O)O)c3cc(S(=O)(=O)O)cc(S(=O)(=O)O)c23)cc1NC(=O)c1cccc(NC(=O)Nc2cccc(C(=O)Nc3cc(C(=O)Nc4ccc(S(=O)(=O)O)c5cc(S(=O)(=O)O)cc(S(=O)(=O)O)c45)ccc3C)c2)c1", "ATP level": "inactive: 2.63"},
      {"smiles": "CCc1cc(C(N)=S)ccn1", "ATP level": "inactive: -1.32"},
      {"smiles": "CC(=O)Nc1c(I)c(NC(C)=O)c(I)c(C(=O)O)c1I", "ATP level": "inactive: 0.977"},
      {"smiles": "CCn1cc(C(=O)O)c(=O)c2cc(F)c(N3CCN(C)CC3)cc21", "ATP level": "inactive: -1.43"},
      {"smiles": "Cc1ccc(S(=O)(=O)NCl)cc1", "ATP level": "inactive: 2.3"},
      {"smiles": "C[C@@H]1CN(c2c(F)c(N)c3c(=O)c(C(=O)O)cn(C4CC4)c3c2F)C[C@H](C)N1", "ATP level": "inactive: -2.32"},
      {"smiles": "C[C@@H]1O[C@@H]1P(=O)(O)O", "ATP level": "inactive: 2.09"},
      {"smiles": "CC1(C)[C@@H](O[C@H]2O[C@H](C(=O)O)[C@@H](O)[C@H](O)[C@H]2O[C@@H]2O[C@H](C(=O)O)[C@@H](O)[C@H](O)[C@H]2O)CC[C@]2(C)[C@H]3C(=O)C=C4[C@@H]5C[C@@](C)(C(=O)O)CC[C@]5(C)CC[C@@]4(C)[C@]3(C)CC[C@@H]12", "ATP level": "inactive: -6.21"},
      {"smiles": "CCOC(=O)CCC(=O)O[C@H]1[C@H](O[C@@H]2[C@@H](C)[C@H](O[C@H]3C[C@@](C)(OC)[C@@H](O)[C@H](C)O3)[C@@H](C)C(=O)O[C@H](CC)[C@@](C)(O)[C@H](O)[C@@H](C)C(=O)[C@H](C)C[C@@]2(C)O)O[C@H](C)C[C@@H]1N(C)C", "ATP level": "inactive: -0.57"},
      {"smiles": "C[C@]12C=CC(=O)C=C1CC[C@@H]1[C@@H]2C(=O)C[C@@]2(C)[C@H]1CC[C@]2(O)C(=O)CO", "ATP level": "inactive: -0.762"},
      {"smiles": "CS(=O)(=O)Nc1ccc([N+](=O)[O-])cc1Oc1ccccc1", "ATP level": "inactive: 0.144"},
      {"smiles": "CCn1cc(C(=O)O)c(=O)c2cc(F)c(N3CCNC(C)C3)c(F)c21", "note": "(configuration not stated)", "ATP level": "inactive: 1.38"},
      {"smiles": "OCc1ccccc1", "ATP level": "inactive: -0.208"},
      {"smiles": "CNC(=C[N+](=O)[O-])NCCSCc1csc(CN(C)C)n1", "ATP level": "active: 3.95"},
      {"smiles": "NS(=O)(=O)c1cc2c(cc1Cl)NCNS2(=O)=O", "ATP level": "inactive: 0.673"},
      {"smiles": "COc1cc(/C=C/C(=O)O)ccc1O", "ATP level": "inactive: -0.48"},
      {"smiles": "CC(=O)O[C@H]1CC[C@]2(C)[C@H]3CC=C4[C@@H]5CC(C)(C)CC[C@]5(C)CC[C@@]4(C)[C@]3(C)CC[C@H]2C1(C)C", "note": "[beta-AMYRIN ACETATE]", "ATP level": "inactive: -0.471"},
      {"smiles": "CN(C)CCC=C1c2ccccc2C=Cc2ccccc21", "ATP level": "inactive: -22.9"},
      {"smiles": "O=c1[nH]c(=O)n([C@H]2C[C@H](O)[C@@H](CO)O2)cc1F", "ATP level": "inactive: -28.4"},
      {"smiles": "Nc1ccc(C(=O)Oc2ccccc2)c(O)c1", "ATP level": "inactive: -0.682"},
      {"smiles": "CNNCc1ccc(C(=O)NC(C)C)cc1", "ATP level": "inactive: 0.69"},
      {"smiles": "C[n+]1cccc(C(=O)[O-])c1", "ATP level": "inactive: 0.528"},
      {"smiles": "O=C(O)c1cc(O)c2c(c1)[C@H]([C@H]1c3cc(C(=O)O)cc(O)c3C(=O)c3c(O[C@@H]4O[C@H](CO)[C@@H](O)[C@H](O)[C@H]4O)cccc31)c1cccc(O[C@@H]3O[C@H](CO)[C@@H](O)[C@H](O)[C@H]3O)c1C2=O", "ATP level": "inactive: 1.36"},
      {"smiles": "CC(=O)Oc1cc(C(C)C)c(OCCN(C)C)cc1C", "ATP level": "inactive: 0.918"}
    ]}
  ]
}
